Reference: the supplement of paper PMC10849652
The list shows a part of the results.

Sequences of proteins named here, by UniProt entry; tags and fusion partners are left off. A change or cut given only in a name is not applied to a line headed by its entry.
UniProt P86791: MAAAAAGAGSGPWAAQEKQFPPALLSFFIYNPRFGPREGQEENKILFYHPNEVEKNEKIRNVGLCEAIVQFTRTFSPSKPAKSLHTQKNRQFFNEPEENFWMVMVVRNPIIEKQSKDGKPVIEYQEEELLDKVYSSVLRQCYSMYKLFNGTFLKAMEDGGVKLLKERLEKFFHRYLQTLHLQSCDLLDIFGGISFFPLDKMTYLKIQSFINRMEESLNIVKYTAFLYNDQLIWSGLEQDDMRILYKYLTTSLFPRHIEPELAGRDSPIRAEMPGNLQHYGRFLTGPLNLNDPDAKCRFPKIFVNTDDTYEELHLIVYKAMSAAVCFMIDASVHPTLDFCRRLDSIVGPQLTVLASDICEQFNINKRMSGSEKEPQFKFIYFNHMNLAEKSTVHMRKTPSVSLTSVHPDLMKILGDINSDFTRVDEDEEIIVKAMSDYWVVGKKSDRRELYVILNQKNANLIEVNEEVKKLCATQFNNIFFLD
UniProt O95400: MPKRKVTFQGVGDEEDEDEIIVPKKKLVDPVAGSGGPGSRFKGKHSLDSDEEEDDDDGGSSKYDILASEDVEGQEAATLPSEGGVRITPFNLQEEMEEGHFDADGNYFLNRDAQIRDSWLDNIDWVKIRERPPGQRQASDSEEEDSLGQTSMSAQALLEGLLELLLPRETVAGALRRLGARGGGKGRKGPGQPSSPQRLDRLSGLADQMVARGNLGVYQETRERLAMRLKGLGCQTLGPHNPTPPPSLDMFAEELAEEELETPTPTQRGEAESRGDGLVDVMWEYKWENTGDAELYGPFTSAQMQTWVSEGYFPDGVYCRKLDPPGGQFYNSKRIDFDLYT
UniProt Q8IX12: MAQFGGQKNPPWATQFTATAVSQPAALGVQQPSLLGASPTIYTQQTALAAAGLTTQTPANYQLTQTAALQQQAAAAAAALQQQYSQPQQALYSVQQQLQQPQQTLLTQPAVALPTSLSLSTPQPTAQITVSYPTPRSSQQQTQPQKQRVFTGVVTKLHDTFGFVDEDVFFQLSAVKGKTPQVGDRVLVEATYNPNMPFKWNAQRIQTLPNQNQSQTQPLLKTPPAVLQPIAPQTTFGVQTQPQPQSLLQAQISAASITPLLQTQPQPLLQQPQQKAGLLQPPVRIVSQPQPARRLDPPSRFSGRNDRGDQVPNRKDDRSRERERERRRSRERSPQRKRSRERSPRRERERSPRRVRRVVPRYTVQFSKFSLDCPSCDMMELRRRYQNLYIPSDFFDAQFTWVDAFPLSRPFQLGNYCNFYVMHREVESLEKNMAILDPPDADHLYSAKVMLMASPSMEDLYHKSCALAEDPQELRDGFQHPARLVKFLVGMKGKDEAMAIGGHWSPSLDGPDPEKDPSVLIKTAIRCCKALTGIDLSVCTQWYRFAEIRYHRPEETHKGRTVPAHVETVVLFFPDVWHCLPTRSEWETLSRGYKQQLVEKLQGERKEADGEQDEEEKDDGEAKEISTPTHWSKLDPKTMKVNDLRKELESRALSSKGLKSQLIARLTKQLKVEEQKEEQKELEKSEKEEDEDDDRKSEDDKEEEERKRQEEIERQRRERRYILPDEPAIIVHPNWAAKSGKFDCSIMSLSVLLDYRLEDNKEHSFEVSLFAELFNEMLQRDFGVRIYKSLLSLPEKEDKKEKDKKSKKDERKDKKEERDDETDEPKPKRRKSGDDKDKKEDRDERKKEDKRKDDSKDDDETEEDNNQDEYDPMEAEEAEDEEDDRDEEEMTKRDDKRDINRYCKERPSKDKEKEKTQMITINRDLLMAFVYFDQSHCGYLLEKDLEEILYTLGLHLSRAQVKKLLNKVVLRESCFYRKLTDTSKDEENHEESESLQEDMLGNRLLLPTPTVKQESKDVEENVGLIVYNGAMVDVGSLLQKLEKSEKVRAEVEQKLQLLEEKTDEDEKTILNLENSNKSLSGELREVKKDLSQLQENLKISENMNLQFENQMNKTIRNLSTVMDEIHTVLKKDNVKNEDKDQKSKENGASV
UniProt Q15834: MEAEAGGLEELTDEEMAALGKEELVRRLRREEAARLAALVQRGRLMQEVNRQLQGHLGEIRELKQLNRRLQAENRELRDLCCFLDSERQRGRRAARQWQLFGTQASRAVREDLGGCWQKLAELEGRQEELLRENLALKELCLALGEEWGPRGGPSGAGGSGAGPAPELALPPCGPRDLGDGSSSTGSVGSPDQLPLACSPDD
UniProt Q92526, whole entry, looked up: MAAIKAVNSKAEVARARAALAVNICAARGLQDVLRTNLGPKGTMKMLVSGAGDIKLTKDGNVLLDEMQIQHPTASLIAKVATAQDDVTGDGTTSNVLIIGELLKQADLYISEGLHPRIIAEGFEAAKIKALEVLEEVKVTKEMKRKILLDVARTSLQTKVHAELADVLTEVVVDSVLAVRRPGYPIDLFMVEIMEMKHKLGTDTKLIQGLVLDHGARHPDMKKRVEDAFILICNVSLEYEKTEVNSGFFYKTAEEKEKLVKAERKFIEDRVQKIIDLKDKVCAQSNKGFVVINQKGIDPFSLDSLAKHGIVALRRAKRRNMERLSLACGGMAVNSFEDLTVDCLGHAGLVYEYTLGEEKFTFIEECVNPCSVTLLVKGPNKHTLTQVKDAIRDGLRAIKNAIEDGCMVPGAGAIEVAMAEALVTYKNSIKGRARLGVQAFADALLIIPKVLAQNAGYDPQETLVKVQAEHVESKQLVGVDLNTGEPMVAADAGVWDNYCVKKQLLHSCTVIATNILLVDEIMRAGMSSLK
UniProt Q15762: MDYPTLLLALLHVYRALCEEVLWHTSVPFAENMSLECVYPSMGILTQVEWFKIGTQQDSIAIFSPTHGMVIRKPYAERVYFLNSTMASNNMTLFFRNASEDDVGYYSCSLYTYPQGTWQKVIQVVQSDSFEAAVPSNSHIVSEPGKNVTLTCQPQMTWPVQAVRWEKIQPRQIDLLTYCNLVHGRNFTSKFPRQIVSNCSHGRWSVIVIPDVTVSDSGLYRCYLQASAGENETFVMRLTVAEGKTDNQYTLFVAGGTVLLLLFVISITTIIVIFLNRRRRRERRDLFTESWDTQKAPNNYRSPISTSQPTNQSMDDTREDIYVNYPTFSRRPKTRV
UniProt O14936: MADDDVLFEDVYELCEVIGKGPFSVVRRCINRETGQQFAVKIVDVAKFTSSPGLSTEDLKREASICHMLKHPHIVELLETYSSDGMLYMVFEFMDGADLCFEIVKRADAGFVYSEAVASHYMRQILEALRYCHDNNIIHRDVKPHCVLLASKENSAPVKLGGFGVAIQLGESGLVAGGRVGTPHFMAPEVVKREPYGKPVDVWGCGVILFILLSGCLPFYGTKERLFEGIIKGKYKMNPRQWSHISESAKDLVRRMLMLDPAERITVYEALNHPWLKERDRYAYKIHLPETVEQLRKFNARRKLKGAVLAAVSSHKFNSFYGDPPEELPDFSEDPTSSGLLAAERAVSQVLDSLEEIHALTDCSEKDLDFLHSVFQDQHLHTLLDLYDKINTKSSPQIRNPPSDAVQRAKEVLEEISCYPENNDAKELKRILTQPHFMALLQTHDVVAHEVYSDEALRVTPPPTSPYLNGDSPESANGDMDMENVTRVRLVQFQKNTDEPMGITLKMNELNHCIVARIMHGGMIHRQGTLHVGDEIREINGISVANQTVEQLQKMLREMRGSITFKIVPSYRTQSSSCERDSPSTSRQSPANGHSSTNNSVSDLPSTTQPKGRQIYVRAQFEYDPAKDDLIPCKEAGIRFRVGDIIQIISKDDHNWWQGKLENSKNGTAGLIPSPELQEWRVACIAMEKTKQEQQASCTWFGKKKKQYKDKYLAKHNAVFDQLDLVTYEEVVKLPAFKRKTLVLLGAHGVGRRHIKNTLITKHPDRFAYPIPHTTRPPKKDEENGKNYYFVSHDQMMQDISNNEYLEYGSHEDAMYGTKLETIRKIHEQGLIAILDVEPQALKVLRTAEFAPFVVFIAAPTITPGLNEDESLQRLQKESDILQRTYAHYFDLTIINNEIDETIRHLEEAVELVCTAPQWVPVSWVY
UniProt Q8IVM0: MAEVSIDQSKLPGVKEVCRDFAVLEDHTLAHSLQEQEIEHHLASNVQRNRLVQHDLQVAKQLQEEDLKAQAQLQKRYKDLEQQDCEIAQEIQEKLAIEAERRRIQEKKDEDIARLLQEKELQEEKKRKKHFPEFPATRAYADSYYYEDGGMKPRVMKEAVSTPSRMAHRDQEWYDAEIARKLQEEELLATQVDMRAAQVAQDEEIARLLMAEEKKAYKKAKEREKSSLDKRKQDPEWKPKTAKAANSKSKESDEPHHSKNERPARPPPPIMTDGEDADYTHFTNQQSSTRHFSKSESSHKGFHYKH
UniProt P0C221: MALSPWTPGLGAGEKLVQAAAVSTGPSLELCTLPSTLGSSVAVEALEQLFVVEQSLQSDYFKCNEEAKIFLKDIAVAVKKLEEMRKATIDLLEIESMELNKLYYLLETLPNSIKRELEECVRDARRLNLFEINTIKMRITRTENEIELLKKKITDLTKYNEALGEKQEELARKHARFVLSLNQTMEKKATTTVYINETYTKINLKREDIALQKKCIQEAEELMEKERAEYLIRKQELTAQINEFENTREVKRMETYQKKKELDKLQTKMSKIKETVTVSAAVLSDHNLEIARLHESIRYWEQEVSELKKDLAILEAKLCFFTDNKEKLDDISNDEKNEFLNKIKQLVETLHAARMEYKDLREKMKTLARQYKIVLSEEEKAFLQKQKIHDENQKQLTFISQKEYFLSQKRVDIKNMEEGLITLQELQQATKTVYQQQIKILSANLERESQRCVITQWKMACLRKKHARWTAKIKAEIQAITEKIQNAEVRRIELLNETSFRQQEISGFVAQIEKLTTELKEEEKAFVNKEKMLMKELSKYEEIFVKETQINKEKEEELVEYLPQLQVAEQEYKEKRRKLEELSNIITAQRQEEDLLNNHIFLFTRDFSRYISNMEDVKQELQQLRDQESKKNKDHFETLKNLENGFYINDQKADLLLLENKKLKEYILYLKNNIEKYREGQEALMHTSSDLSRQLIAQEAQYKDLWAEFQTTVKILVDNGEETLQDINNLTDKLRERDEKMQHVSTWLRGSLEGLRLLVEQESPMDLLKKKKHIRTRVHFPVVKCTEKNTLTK
UniProt Q8TD31: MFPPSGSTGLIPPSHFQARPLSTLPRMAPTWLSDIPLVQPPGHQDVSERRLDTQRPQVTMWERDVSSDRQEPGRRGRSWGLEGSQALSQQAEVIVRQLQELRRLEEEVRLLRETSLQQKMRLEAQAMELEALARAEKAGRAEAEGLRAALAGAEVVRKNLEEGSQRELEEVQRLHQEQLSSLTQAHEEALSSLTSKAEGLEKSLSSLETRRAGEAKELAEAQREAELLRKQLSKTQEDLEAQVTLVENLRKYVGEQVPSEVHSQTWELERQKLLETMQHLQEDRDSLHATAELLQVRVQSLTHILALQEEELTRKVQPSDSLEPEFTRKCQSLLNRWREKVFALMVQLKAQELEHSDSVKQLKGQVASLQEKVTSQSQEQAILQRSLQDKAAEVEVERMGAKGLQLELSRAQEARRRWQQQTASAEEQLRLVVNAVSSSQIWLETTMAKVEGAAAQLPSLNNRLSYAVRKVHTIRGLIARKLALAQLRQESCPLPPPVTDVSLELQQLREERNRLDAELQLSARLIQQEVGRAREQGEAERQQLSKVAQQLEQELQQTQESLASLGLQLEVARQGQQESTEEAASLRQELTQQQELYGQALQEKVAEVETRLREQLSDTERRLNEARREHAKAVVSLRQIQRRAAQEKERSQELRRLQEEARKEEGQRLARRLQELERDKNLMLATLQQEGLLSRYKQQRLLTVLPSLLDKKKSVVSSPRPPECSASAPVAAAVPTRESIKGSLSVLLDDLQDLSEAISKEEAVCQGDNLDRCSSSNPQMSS
UniProt P19397: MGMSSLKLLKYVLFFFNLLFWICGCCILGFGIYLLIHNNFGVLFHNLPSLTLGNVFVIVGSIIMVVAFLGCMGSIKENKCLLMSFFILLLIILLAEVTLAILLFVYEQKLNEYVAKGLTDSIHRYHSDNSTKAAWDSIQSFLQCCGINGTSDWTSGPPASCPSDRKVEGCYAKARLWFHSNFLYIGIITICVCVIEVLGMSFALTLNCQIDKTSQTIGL
UniProt Q75N03: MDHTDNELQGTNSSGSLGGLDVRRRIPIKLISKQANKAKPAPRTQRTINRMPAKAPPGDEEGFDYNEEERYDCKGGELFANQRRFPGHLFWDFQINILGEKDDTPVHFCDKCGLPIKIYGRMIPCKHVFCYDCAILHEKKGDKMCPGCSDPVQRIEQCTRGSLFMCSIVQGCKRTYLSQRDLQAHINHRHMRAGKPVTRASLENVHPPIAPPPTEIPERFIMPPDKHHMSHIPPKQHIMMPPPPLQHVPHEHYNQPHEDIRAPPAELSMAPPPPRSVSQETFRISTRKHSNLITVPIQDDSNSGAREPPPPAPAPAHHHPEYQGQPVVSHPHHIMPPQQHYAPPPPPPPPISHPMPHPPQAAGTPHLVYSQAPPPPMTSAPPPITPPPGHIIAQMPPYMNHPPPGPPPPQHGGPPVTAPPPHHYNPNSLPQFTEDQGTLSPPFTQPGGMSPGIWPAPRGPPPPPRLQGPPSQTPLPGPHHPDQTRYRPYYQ

Legend:
Test in all cases: log2 fold change, soluble protein after heating vs DMSO (PISA); higher = thermal stabilisation; K562 lysate, 10 uM; active = over 0.2 and 3.5 SD of the protein, either way, in both replicates (recomputed)
lapatinib = compound: CS(=O)(=O)CCNCc1ccc(-c2ccc3ncnc(Nc4ccc(OCc5cccc(F)c5)c(Cl)c4)c3c2)o1 [lapatinib]
Procedure, shortened: (§1)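 K562 pellets were dounce-homogenised in PBS pH 7.4 containing 1 mM MgCl2, and the crude extract, at 1 mg/mL protein, was exposed to 10 μM compound for 30 min. Aliquots were heated for 3 min across 48°C-58°C, pooled, brought to 0.5% NP-40 at 4°C and spun at 21,000xg for 90 min, with the supernatant taken as soluble protein. TMTpro 16plex LC-MS/MS with equalised channel sums quantified that protein. Values are log-two fold changes in thermal stability relative to solvent controls, taken from duplicates.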

pictilisib = compound: CS(=O)(=O)N1CCN(Cc2cc3nc(-c4cccc5[nH]ncc45)nc(N4CCOCC4)c3s2)CC1 [pictilisib]
Procedure, shortened: as §1

crizotinib = compound: C[C@@H](Oc1cc(-c2cnn(C3CCNCC3)c2)cnc1N)c1c(Cl)ccc(F)c1Cl [crizotinib]
Procedure, shortened: as §1

[1] = compound: C[C@H](C1=CC=C(C=C1)C(=O)NC2=C3C=CNC3=NC=C2)N
Procedure, shortened: as §1

duvelisib = compound: C[C@H](Nc1ncnc2nc[nH]c12)c1cc2cccc(Cl)c2c(=O)n1-c1ccccc1 [duvelisib]
Procedure, shortened: as §1

gandotinib = compound: Cc1cc(Nc2cc(CN3CCOCC3)c3nc(C)c(Cc4ccc(Cl)cc4F)n3n2)n[nH]1 [gandotinib]
Procedure, shortened: as §1

tozasertib = compound: Cc1cc(Nc2cc(N3CCN(C)CC3)nc(Sc3ccc(NC(=O)C4CC4)cc3)n2)n[nH]1 [tozasertib]
Procedure, shortened: as §1

doramapimod = compound: Cc1ccc(-n2nc(C(C)(C)C)cc2NC(=O)Nc2ccc(OCCN3CCOCC3)c3ccccc23)cc1 [doramapimod]
Procedure, shortened: as §1

bafetinib = compound: Cc1ccc(NC(=O)c2ccc(CN3CC[C@H](N(C)C)C3)c(C(F)(F)F)c2)cc1Nc1nccc(-c2cncnc2)n1 [bafetinib]
Procedure, shortened: as §1

[2] = compound: Cc1cccc(CC(=O)N2CCc3c2ccc(-c2cn(C)c4ncnc(N)c24)c3F)n1
Procedure, shortened: as §1

nilotinib = compound: Cc1cn(-c2cc(NC(=O)c3ccc(C)c(Nc4nccc(-c5cccnc5)n4)c3)cc(C(F)(F)F)c2)cn1 [nilotinib]
Procedure, shortened: as §1

[3] = compound: Cc1nc(Nc2n[nH]c3c2CN(C(=O)N[C@H](CN(C)C)c2ccccc2)C3(C)C)c2sccc2n1
Procedure, shortened: as §1

dasatinib = compound: Cc1nc(Nc2ncc(C(=O)Nc3c(C)cccc3Cl)s2)cc(N2CCN(CCO)CC2)n1 [dasatinib]
Procedure, shortened: as §1

[4] = compound: Cc1ncc(-c2ccnc(Nc3ccc(S(C)(=O)=O)cc3)n2)n1C(C)C
Procedure, shortened: as §1

[5] = compound: Cn1cc(-c2ccc3c(c2)CCN3C(=O)Cc2cccc(C(F)(F)F)c2)c2c(N)ncnc21
Procedure, shortened: as §1

quisinostat = compound: Cn1cc(CNCC2CCN(c3ncc(C(=O)NO)cn3)CC2)c2ccccc21 [quisinostat]
Procedure, shortened: as §1

tipifarnib = compound: Cn1cncc1[C@@](N)(c1ccc(Cl)cc1)c1ccc2c(c1)c(-c1cccc(Cl)c1)cc(=O)n2C [tipifarnib]
Procedure, shortened: as §1

[6] = compound: NC(=O)Nc1cc(-c2cccc(F)c2)sc1C(=O)N[C@H]1CCCNC1
Procedure, shortened: as §1

[7] = compound: NC(=O)c1cnc(N[C@@H]2CCCC[C@@H]2N)nc1Nc1cccc(-n2nccn2)c1
Procedure, shortened: as §1

[8] = compound: NC1(c2ccc(-c3nc4ccn5c(=O)[nH]nc5c4cc3-c3ccccc3)cc2)CCC1
Procedure, shortened: as §1

Measured: log2 fold change

CCZ1 (UniProt P86791)
inactive: lapatinib 0.012 | pictilisib -0.019 | crizotinib 0.014 | [1] -0.033 | duvelisib 0.033 | gandotinib 0.014 | tozasertib 0.002 | doramapimod -0.004 | bafetinib -0.011 | [2] 0.042 | nilotinib 0.01 | [3] -0.042 | dasatinib 0.015 | [4] -0.041 | [5] 0.018 | quisinostat -0.016 | tipifarnib 0.004 | [6] 0.025 | [7] 0.008 | [8] 0.03

CD2BP2 (UniProt O95400)
inactive: lapatinib 0 | pictilisib -0.007 | crizotinib -0.004 | [1] 0.119 | duvelisib 0.031 | gandotinib -0.049 | tozasertib 0.025 | doramapimod -0.024 | bafetinib -0.023 | [2] -0.072 | nilotinib -0.016 | [3] -0.007 | dasatinib -0.009 | [4] 0.014 | [5] 0.008 | quisinostat -0.023 | tipifarnib -0.05 | [6] 0.007 | [7] 0.022 | [8] 0.021

CBLB (UniProt Q13191)
inactive: lapatinib -0.023 | pictilisib 0.014 | crizotinib -0.071 | [1] -0.113 | duvelisib -0.058 | gandotinib 0.087 | tozasertib -0.18 | doramapimod 0.01 | bafetinib 0.055 | [2] 0.029 | nilotinib -0.023 | [3] 0.064 | dasatinib -0.228 | [4] 0.124 | [5] 0.095 | quisinostat -0.071 | tipifarnib -0.023 | [6] 0.033 | [7] -0.002 | [8] 0.028

CCAR1 (UniProt Q8IX12)
inactive: lapatinib 0.005 | pictilisib -0.027 | crizotinib 0.022 | [1] -0.136 | duvelisib -0.03 | gandotinib 0.02 | tozasertib 0.014 | doramapimod -0.011 | bafetinib -0.019 | [2] 0.01 | nilotinib 0.013 | [3] 0 | dasatinib -0.049 | [4] -0.005 | [5] -0.006 | quisinostat 0.029 | tipifarnib -0.028 | [6] 0.007 | [7] -0.001 | [8] 0.018

CCAR2 (UniProt G3V119)
inactive: lapatinib -0.12 | [7] -0.015

CCDC85B (UniProt Q15834)
inactive: lapatinib 0 | pictilisib -0.042 | crizotinib 0.006 | [1] -0.016 | duvelisib 0.081 | gandotinib -0.032 | tozasertib 0.248 | doramapimod 0.098 | bafetinib 0.054 | [2] 0.011 | dasatinib 0.066 | [5] -0.034 | quisinostat 0.086 | [6] 0.044 | [7] -0.225 | [8] 0.188

CCT6B isoform 3 (UniProt Q92526)
inactive: lapatinib -0.114 | duvelisib 0.092 | dasatinib -0.053 | [5] -0.084 | [7] 0.099

CD226 (UniProt Q15762)
inactive: lapatinib -0.134 | pictilisib 0.008 | bafetinib 0.017 | [7] 0.093

CASK (UniProt O14936)
inactive: lapatinib -0.033 | pictilisib -0.046 | [1] 0.052 | duvelisib 0.174 | gandotinib -0.021 | tozasertib 0.073 | doramapimod 0.061 | bafetinib -0.074 | [2] -0.141 | dasatinib -0.06 | [5] 0.012 | quisinostat 0.069 | [6] 0.139 | [7] -0.02 | [8] 0.001

CCDC57 (UniProt Q2TAC2)
inactive: lapatinib -0.083 | pictilisib -0.04 | [1] -0.1 | duvelisib -0.008 | gandotinib 0.117 | tozasertib 0.118 | bafetinib -0.086 | [2] 0.002 | nilotinib 0.044 | [3] -0.044 | dasatinib -0.037 | [4] 0.015 | [5] -0.049 | tipifarnib -0.005 | [7] -0.025

CCDC50 (UniProt Q8IVM0)
inactive: lapatinib -0.082 | pictilisib 0.071 | crizotinib 0.04 | tozasertib -0.137 | doramapimod -0.033 | bafetinib -0.375 | nilotinib 0.108 | [3] 0.213 | [4] -0.099 | quisinostat 0.231 | tipifarnib -0.03 | [6] 0.001 | [7] 0.043 | [8] 0.072

CD33 (UniProt P20138)
inactive: lapatinib 0.014 | crizotinib 0.316 | [1] 0.048 | duvelisib -0.028 | gandotinib -0.024 | doramapimod 0.036 | [2] 0.075 | nilotinib -0.005 | [3] 0.006 | dasatinib 0.082 | [4] -0.066 | [5] 0.008 | quisinostat 0.261 | tipifarnib -0.131 | [6] -0.263 | [7] -0.031

CCDC175 (UniProt P0C221)
inactive: lapatinib -0.177 | [1] -0.261 | gandotinib 0.256 | tozasertib -0.077 | [2] 0.329 | [7] 0.117

CCNE1 (UniProt P24864)
inactive: lapatinib -0.088 | pictilisib -0.139 | crizotinib 0 | [1] 0.006 | duvelisib -0.026 | gandotinib -0.05 | tozasertib -0.089 | doramapimod -0.167 | bafetinib 0.039 | [2] 0.043 | dasatinib 0.007 | [5] -0.088 | quisinostat -0.057 | [6] 0.105 | [7] -0.034

CCHCR1 isoform 2 (UniProt Q8TD31)
inactive: pictilisib -0.022 | crizotinib -0.055 | [1] -0.005 | gandotinib -0.068 | tozasertib -0.003 | doramapimod -0.086 | bafetinib -0.149 | [2] 0.072 | nilotinib -0.156 | [3] 0.01 | [4] -0.195 | quisinostat 0.053 | tipifarnib -0.347 | [6] 0.095 | [8] 0.09

CD53 (UniProt P19397)
inactive: lapatinib -0.001 | pictilisib -0.176 | crizotinib -0.048 | [1] -0.169 | gandotinib 0.097 | tozasertib 0.043 | doramapimod 0.085 | bafetinib -0.009 | [2] 0.012 | nilotinib -0.085 | [3] 0.037 | [4] -0.014 | quisinostat -0.141 | tipifarnib 0.006 | [6] -0.017 | [7] -0.045 | [8] 0.008

CARD9 (UniProt Q9H257)
inactive: lapatinib -0.048 | pictilisib -0.035 | crizotinib -0.053 | [1] -0.016 | duvelisib -0.009 | gandotinib -0.032 | tozasertib 0.022 | doramapimod 0.032 | bafetinib -0.145 | [2] 0.03 | nilotinib 0.047 | [3] -0.037 | dasatinib -0.017 | [4] 0.028 | [5] 0 | quisinostat -0.032 | tipifarnib -0.035 | [6] 0.005 | [7] 0.034 | [8] -0.007

CBLL1 (UniProt Q75N03)
inactive: lapatinib -0.027 | crizotinib -0.04 | [1] 0.038 | duvelisib 0.042 | gandotinib -0.082 | tozasertib 0.05 | doramapimod 0.036 | [2] -0.004 | nilotinib 0.045 | [3] 0.002 | dasatinib -0.043 | [4] -0.039 | [5] -0.019 | quisinostat 0.039 | tipifarnib 0.05 | [6] -0.045 | [7] 0.066 | [8] -0.031

CASP7 isoform 3 (UniProt P55210)
inactive: lapatinib -0.055 | pictilisib 0.037 | crizotinib -0.07 | duvelisib 0.009 | tozasertib 0.049 | doramapimod 0.029 | bafetinib -0.054 | nilotinib -0.042 | [3] 0.01 | dasatinib -0.091 | [4] 0.05 | [5] 0.226 | quisinostat -0.016 | tipifarnib 0.049 | [6] 0.022 | [7] 0.106 | [8] 0.063

CARHSP1 (UniProt H3BNU9)
inactive: lapatinib -0.101 | pictilisib -0.186 | [1] 0.16 | gandotinib -0.329 | bafetinib 0 | [2] 0.341 | nilotinib -0.196 | [3] 0.149 | [4] 0.238 | tipifarnib 0.108 | [7] -0.059

2 successive records from above, for reference:
CBLL1 (UniProt Q75N03)
inactive: lapatinib -0.027 | crizotinib -0.04 | [1] 0.038 | duvelisib 0.042 | gandotinib -0.082 | tozasertib 0.05 | doramapimod 0.036 | [2] -0.004 | nilotinib 0.045 | [3] 0.002 | dasatinib -0.043 | [4] -0.039 | [5] -0.019 | quisinostat 0.039 | tipifarnib 0.05 | [6] -0.045 | [7] 0.066 | [8] -0.031

CASP7 isoform 3 (UniProt P55210)
inactive: lapatinib -0.055 | pictilisib 0.037 | crizotinib -0.07 | duvelisib 0.009 | tozasertib 0.049 | doramapimod 0.029 | bafetinib -0.054 | nilotinib -0.042 | [3] 0.01 | dasatinib -0.091 | [4] 0.05 | [5] 0.226 | quisinostat -0.016 | tipifarnib 0.049 | [6] 0.022 | [7] 0.106 | [8] 0.063
